# Primary screen of a compound library

Amino acid sequences for entries named in this document (tags omitted).
UniProt P9WPC5, whole entry: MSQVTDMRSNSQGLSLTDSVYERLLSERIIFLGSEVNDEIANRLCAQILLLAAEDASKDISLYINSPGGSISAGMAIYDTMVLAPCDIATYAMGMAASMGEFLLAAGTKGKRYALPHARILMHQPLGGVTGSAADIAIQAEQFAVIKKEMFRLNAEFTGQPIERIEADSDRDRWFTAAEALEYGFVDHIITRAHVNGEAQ
UniProt P9WPC3, whole entry partner: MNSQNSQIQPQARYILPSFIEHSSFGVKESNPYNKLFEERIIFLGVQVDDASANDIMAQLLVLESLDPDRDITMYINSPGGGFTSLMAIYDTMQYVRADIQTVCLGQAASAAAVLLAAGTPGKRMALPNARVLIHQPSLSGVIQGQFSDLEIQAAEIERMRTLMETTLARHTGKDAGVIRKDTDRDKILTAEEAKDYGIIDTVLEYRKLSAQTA
UniProt P9WFT3, whole entry: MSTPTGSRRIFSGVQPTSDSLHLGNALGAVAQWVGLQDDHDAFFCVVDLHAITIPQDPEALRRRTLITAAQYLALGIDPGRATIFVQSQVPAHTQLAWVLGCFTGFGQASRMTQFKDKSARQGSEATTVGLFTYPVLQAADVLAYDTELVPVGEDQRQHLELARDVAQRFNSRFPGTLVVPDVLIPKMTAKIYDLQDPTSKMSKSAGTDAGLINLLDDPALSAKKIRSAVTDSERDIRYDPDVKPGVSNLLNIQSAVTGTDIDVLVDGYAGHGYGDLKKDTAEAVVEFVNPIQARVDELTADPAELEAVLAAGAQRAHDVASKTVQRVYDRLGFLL

The values are deposited in ChEMBL (CHEMBL3988442, “University of Dundee, Small-Polar-MMV Screening Library” (2021)).

ClpP1P2: 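Protease assay of ClpP1P2, read by the AMC dye that it sets free. Target: ClpP1P2, Mycobacterium tuberculosis (UniProt P9WPC5 and UniProt P9WPC3). Tested at 50 µM. Direction is inferred from only a few compounds that gave an IC50; most scored high, so higher reads as stronger inhibition. Most other retested compounds had strongly negative values. Of about 69,000 compounds tested this way, about 10 (0.015%) reached 50% or more in at least one test.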
MtTrpRS: 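Enzyme assay of tryptophanyl-tRNA synthetase; the read-out is not stated. Target: Tryptophan-tRNA ligase, Mycobacterium tuberculosis (UniProt P9WFT3). Tested at 10 µM. Higher most likely means stronger inhibition; the record gives no direction and few retests gave an IC50. Size under these conditions: about 65,000 compounds, about 64 of them at 50% or above in at least one test.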

The filed quantity is “Percent Effect” (%).
The record does not define 0% and 100%; most values in the screen are far below 50% and negative numbers occur (in some assays of this library far below -100).
This is an unselected part of the compounds tested.
A dash means the value is not listed here; it may have been measured.

| # | structure | ClpP1P2 | MtTrpRS |
|---|---|---|---|
| 1 | `O=C(CCc1nc(Cl)n[nH]1)NC1CCCN(CC2CCCCC2)C1` (stereo not drawn) | 2.067% | -3.194% |
| 2 | `Cc1nnc([C@H]2C[C@@H]3CCN(Cc4cc(C)on4)C[C@H]3O2)[nH]1` | -14.56% | -1.802% |
| 3 | `O=C1CCC(=O)N1CCn1nnc(-c2ccc(Br)cc2)n1` | 9.102% | -0.9202% |
| 4 | `O=C(O)c1nnn(Cc2cccc(C(F)(F)F)c2)c1-c1cccnc1` | 0.8027% | -2.412% |
| 5 | `COc1cccc(C(=O)N2CCCC(C(=O)CCc3ccccc3)C2)c1` (stereo not drawn) | -0.856% | -1.782% |
| 6 | `CC(=O)N(Cc1noc(C)n1)C1CCN(Cc2ccc(C#N)cc2)C1` (stereo not drawn) | 8.474% | 17.55% |
| 7 | `CC(C)NC(=O)c1sccc1N(C)S(=O)(=O)c1ccc(Cl)cc1` | -2.112% | -4.343% |
| 8 | `CC(=O)N1CCN(C(=O)C2CCN(c3cccnn3)C2)CC1` (stereo not drawn) | 11.9% | 6.319% |
| 9 | `Cc1ccc(NC2CCN(C(=O)c3ccc4c(c3)CCC4)CC2)nn1` | -11.76% | 23.56% |
| 10 | `COCC(C)NCc1ccc2[nH]c(C)c(C)c2c1` (stereo not drawn) | -5.748% | 3.704% |
| 11 | `Cc1ccc([C@]2(O)CC[C@H]3CN(Cc4ccc(Cl)cc4Cl)C[C@H]32)nc1` | 16.63% | - |
| 12 | `COc1ccc(CN2CCC(CO)(Cc3ccc(Cl)cc3)CC2)c(O)c1` | -8.363% | -2.124% |
| 13 | `CCn1cnc2c(c(Br)nn2C)c1=O` | -3.947% | 3.15% |
| 14 | `CSc1sc2c(O)cc(=O)[nH]c2c1C(N)=O` | 0.8152% | -1.085% |
| 15 | `CN1CCO[C@H]2CN(C(=O)c3ccoc3)C[C@H]21` | 3.434% | -1.91% |
| 16 | `CC(Cc1ccccc1Cl)NC(=O)Nc1cnn(CC(N)=O)c1` (stereo not drawn) | 9.477% | -5.24% |
| 17 | `O=S(=O)(C1CC1)N1CCC2(CC1)CN(Cc1nccs1)CCO2` | 4.217% | -1.464% |
| 18 | `Cc1cccc(C(C)(C)CNC(=O)CN(C)c2cnccn2)c1` | 4.023% | -4.413% |
| 19 | `Cc1cc(NC(=O)NCC(C(C)C)N2CCOCC2)n(C)n1` (stereo not drawn) | -3.431% | -3.625% |
| 20 | `O=C1CCc2cc(S(=O)(=O)NC(=O)c3ccc4c(c3)OCO4)ccc2N1` | -14.72% | -0.602% |
| 21 | `CCC[C@@H]1CN(S(=O)(=O)c2ccc3[nH]c(=O)[nH]c3c2)C[C@H]1NC(C)=O` | -4.64% | -2.282% |
| 22 | `CC(C)OCCC(=O)N1CCN(CC(O)c2ccccc2)CC1` (stereo not drawn) | -2.611% | -3.419% |
| 23 | `CC(C)c1nc(CN(C)C2CCN(CCS(C)(=O)=O)C2)no1` (stereo not drawn) | -7.567% | 2.466% |
| 24 | `COc1cccc(-c2n[nH]c3c2CN(C(=O)c2cc(C)n(C)n2)CC3)c1` | -1.612% | 0.9372% |
| 25 | `CC(C)[C@@H]1CN(Cc2ccccn2)C[C@H]1NS(=O)(=O)N(C)C` | -3.579% | -3.44% |
| 26 | `COc1c(C2CCCN2C(=O)c2cnc(C)cn2)c(C)nn1C` (stereo not drawn) | 10.9% | 10.03% |
| 27 | `CCOC(=O)N1CCC2(CCNC2)C1` (stereo not drawn) | -15.44% | -1.859% |
| 28 | `O=C(NC1CC1)c1cc(C2CC2)nc2onc(C3CCNCC3)c12` | -4.807% | 0.4322% |
| 29 | `COc1cccc(S(=O)(=O)N2CCC(O)(CN(C)C)C2)c1` (stereo not drawn) | -0.189% | 1.083% |
| 30 | `CC1CN(C)CCN1Cc1cccc(C(=O)NCc2ccco2)c1` (stereo not drawn) | 12.46% | 6.535% |
| 31 | `Cc1cc(C(=O)N2CCn3nc(C(=O)NC4CC4)cc3C2)nc(C)n1` | -5.193% | 1.156% |
| 32 | `CCOc1cc(C(=O)n2cccn2)cc(OCC)c1OCC` | 2.679% | -3.083% |
| 33 | `CC(C)CNC(=O)c1cc(Br)c2c(c1)OCCO2` | -11.74% | -0.3549% |
| 34 | `O=C(c1ccccn1)N1CCc2ncnc(N3CCOCC3)c2CC1` | 4.274% | 2.441% |
| 35 | `Cc1ccc(NCc2ccccc2C#N)cc1-n1cnnn1` | 5.673% | 1.941% |
| 36 | `O=C1NC[C@H]2CN(Cc3ccnc4ccccc34)CCN12` | -8.04% | -6.599% |
| 37 | `C1CC(N2C[C@@H]3COC[C@]3(COCC3CCOCC3)C2)C1` | -5.28% | - |
| 38 | `Cc1nn(C)c(C)c1C(C)NCc1ccc(OC(C)C)cc1` (stereo not drawn) | -3.222% | -0.361% |
| 39 | `CN(Cc1nc(-c2ccco2)no1)C1CCCN(c2cccnn2)C1` (stereo not drawn) | 17.49% | -4.327% |
| 40 | `Cc1cc(C(=O)CN2CCN(c3ncccn3)CC2)c(C)n1C(C)C` | 23.61% | -1.848% |
| 41 | `CCC(O)CN(C)Cc1nnc2ccccn12` (stereo not drawn) | 14.14% | 0.1039% |
| 42 | `Cc1cc(C)cc(CNC(c2ccccc2)c2nccn2C)c1` (stereo not drawn) | -45.62% | 2.516% |
| 43 | `CCn1c(C2CCN(C(=O)CCc3cc(Cl)no3)CC2)nn(C)c1=O` | -7.269% | 1.008% |
| 44 | `FC(F)(F)c1ccccc1CN1CCOC[C@H](Oc2cccnc2)C1` | -2.919% | 2.2% |
| 45 | `Cc1nc(CNC(=O)N2CCN(c3ccc(Cl)cn3)CC2)sc1C` | -11.57% | -1.14% |
| 46 | `CCC[C@H]1CN(c2cncc(C(=O)N(C)C)n2)C[C@@H]1N(C)C` | -136.5% | 5.306% |
| 47 | `CCOCc1cnc2n1CCN(C(=O)C1=CCCC1)C2C` (stereo not drawn) | 5.49% | 5.394% |
| 48 | `NC(=O)c1ccc(N2CCCCC2)c(NC(=O)c2cc(Br)ccc2F)c1` | 7.632% | 2.237% |
| 49 | `Cc1noc(C)c1CN(C)Cc1csc(-c2ccc(C(C)C)cc2)n1` | 16.15% | 13.01% |
| 50 | `O=C(NCc1ccccn1)[C@H]1COC[C@H]2CN(c3ncccn3)C[C@H]21` | 1.994% | -2.885% |
| 51 | `CCN(CC)C(=O)[C@@H]1C[C@H](n2cc(-c3ccccn3)nn2)CN1` | -5.85% | 8.628% |
| 52 | `NC(=O)Cn1ccnc1C1CCCN(Cc2nc3ccccc3s2)C1` (stereo not drawn) | -2.782% | 2.913% |
| 53 | `Cc1cn2c(n1)CCC(NC(=O)CCC1CC1)C2` (stereo not drawn) | -10.74% | 0.5069% |
| 54 | `Cc1ccc(OC2(C(=O)O)CCN(C(=O)CCc3ccco3)CC2)cn1` | -20.43% | 3.539% |
| 55 | `CS(=O)(=O)NCC1CCCCN1C(=O)c1ccc(Br)s1` (stereo not drawn) | 2.683% | -1.883% |
| 56 | `CCN(CC)S(=O)(=O)c1ccc(CNC(=O)N2CCCCCC2)cc1` | 0.1129% | 2.969% |
| 57 | `CC(=O)c1cccc(-c2nc3c([nH]2)CCNC3)c1F` | 1.34% | -1.975% |
| 58 | `COc1ccccc1N1CCC(NCc2c(C)noc2C)C1` (stereo not drawn) | -1.507% | 2.888% |
| 59 | `COc1cccc(COCC(=O)N2CCCC(c3nncn3C)C2)c1` (stereo not drawn) | 16.34% | 5.086% |
| 60 | `O=C1C(CS(=O)(=O)Nc2ccccc2)=NC(=O)n2cccc21` | -10.23% | -0.07003% |
| 61 | `O=C(NCC1(O)CCCC1)c1ccc2nsnc2c1` | -5.459% | 0.7424% |
| 62 | `COCC1CN(c2ccncn2)Cc2cnn(CC3CCCC3)c21` (stereo not drawn) | -0.7297% | -1.744% |
| 63 | `O=C(CC1CC1)N1CCc2ncc(Cn3cncn3)n2CC1` | 2.303% | -2.658% |
| 64 | `Cc1nn(C)c(N2CCOCC2)c1CNC1CCC(O)CC1` (stereo not drawn) | -7.09% | -7.794% |
| 65 | `CCCN1CCC(CC(=O)N(C)C(C)c2cncs2)CC1` (stereo not drawn) | 8.895% | 0.9288% |
| 66 | `NC(=O)C1CCN(C(=O)c2ccccc2OCc2ccncc2)CC1` | 5.243% | 2.475% |
| 67 | `O=C(Cc1cn2ccsc2n1)N(Cc1ccco1)CC1CCCO1` (stereo not drawn) | -13.17% | 11.27% |
| 68 | `COCc1nc(C(=O)N2CCCC2c2cc(C)on2)cs1` (stereo not drawn) | -1.042% | -5.367% |
| 69 | `COc1ncccc1NC(=O)c1[nH]nc(C(C)C)c1Br` | -2.609% | 2.523% |
| 70 | `CCNC(=O)[C@@H]1C[C@@H](N)CN1Cc1ccc(-c2ccccc2C#N)o1` | -6.927% | -5.307% |
| 71 | `CCn1ncc2c1CCCC2NCc1csc(COC)n1` (stereo not drawn) | 8.551% | 0.2064% |
| 72 | `COc1ccc(C(=O)O)c(OCC(=O)NC(C)c2ccccc2)c1` (stereo not drawn) | 3.196% | -0.09234% |
| 73 | `COCCC(=O)N1CCCC1c1nccnc1Nc1ncccn1` (stereo not drawn) | 2.121% | - |
| 74 | `O=C(N1CCOCC1)N1C[C@@H]2OCCN(C(=O)c3ccco3)[C@@H]2C1` | -14.69% | 1.549% |
| 75 | `Cc1ccc(NC(=O)CSCc2cccnc2)nc1` | 4.43% | -2.7% |
| 76 | `CC(SCCNS(=O)(=O)c1cnn(C)c1)c1cccs1` (stereo not drawn) | -5.796% | -1.56% |
| 77 | `O=C(CC1CCCC1)N1CCn2cc(Cn3cccn3)nc2C1` | -5.403% | 5.629% |
| 78 | `CN(C(=O)NCCCNc1ccccn1)C1CCS(=O)(=O)C1` (stereo not drawn) | 9.013% | 2.062% |

Some entries from above, unchanged:

* COc1cccc(C(=O)N2CCCC(C(=O)CCc3ccccc3)C2)c1 (stereo not drawn) : ClpP1P2: -0.856%; MtTrpRS: -1.782%
* CSc1sc2c(O)cc(=O)[nH]c2c1C(N)=O : ClpP1P2: 0.8152%; MtTrpRS: -1.085%
* O=C(O)c1nnn(Cc2cccc(C(F)(F)F)c2)c1-c1cccnc1 : ClpP1P2: 0.8027%; MtTrpRS: -2.412%
* NC(=O)Cn1ccnc1C1CCCN(Cc2nc3ccccc3s2)C1 (stereo not drawn) : ClpP1P2: -2.782%; MtTrpRS: 2.913%
* CC(=O)N(Cc1noc(C)n1)C1CCN(Cc2ccc(C#N)cc2)C1 (stereo not drawn) : ClpP1P2: 8.474%; MtTrpRS: 17.55%
* Cc1ccc([C@]2(O)CC[C@H]3CN(Cc4ccc(Cl)cc4Cl)C[C@H]32)nc1 : ClpP1P2: 16.63%